Data: paper PMC10577574
These are yes or no findings as the source states them, for the method shown. In cells and extracts the contact can be indirect. Some entries that bind do so weakly or less than the wild type. For some assays here: Tags and fused reporters may be left off the sequences shown.

By UniProt entry, the sequences of proteins in these tests, tags left out. Residues count along the entry.
UniProt P05067, residues 18-770: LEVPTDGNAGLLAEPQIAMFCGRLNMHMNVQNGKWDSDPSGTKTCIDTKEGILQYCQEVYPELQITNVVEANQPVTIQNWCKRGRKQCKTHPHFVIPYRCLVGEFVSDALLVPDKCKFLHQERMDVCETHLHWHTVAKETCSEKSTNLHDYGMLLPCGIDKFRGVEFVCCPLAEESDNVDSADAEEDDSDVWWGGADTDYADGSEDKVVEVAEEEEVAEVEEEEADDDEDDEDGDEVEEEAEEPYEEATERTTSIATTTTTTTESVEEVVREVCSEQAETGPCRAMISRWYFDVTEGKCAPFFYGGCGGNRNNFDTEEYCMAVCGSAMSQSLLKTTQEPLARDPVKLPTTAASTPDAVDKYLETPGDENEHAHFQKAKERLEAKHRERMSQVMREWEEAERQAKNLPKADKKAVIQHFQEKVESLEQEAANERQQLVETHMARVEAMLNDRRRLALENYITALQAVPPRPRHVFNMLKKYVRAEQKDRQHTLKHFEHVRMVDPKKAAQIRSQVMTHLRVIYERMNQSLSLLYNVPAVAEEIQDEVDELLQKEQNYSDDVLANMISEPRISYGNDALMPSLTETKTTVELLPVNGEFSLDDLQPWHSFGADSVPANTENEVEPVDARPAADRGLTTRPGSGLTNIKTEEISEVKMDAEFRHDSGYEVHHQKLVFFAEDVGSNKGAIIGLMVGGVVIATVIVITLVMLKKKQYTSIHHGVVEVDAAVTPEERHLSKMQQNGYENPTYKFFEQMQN

B1: Myc-tagged SIRT2, in HEK293T cells (enzyme, UniProt Q8IXJ6 1-389)
chain: MAEPDPSHPLETQAGKVQEAQDSDSDSEGGAAGGEADMDFLRNLFSQTLSLGSQKERLLDELTLEGVARYMQSERCRRVICLVGAGISTSAGIPDFRSPSTGLYDNLEKYHLPYPEAIFEISYFKKHPEPFFALAKELYPGQFKPTICHYFMRLLKDKGLLLRCYTQNIDTLERIAGLEQEDLVEAHGTFYTSHCVSASCRHEYPLSWMKEKIFSEVTPKCEDCQSLVKPDIVFFGESLPARFFSCMQSDFLKVDLLLVMGTSLQVQPFASLISKAPLSTPRLLINKEKAGQSDPFLGMIMGLGGGMDFDSKKAYRDVAWLGECDQGCLALAELLGWKKELEDLVRREHASIDAQSGAGVPNPSTSASPKKSPPPAKDEARTTEREKPQ
B2: SIRT2 in HEK293 WT or SIRT1 KO cells (enzyme, UniProt Q8IXJ6 1-389)
chain: B1 chain

Tests used:
[1] = target: APP in HEK293T cells (co-IPs of Figure 3f,g and 3j) (UniProt P05067); assay: co-IP; Myc-tagged SIRT2 and APP, with or without Flag-tagged SIRT1, in HEK293T cells
[2] = target: APP in HEK293 WT or SIRT1 KO cells (UniProt P05067); assay: co-IP; SIRT2 and APP in WT or SIRT1 KO HEK293 cells

Row | Binder | binding [1] | binding [2]
1 | B1 | binds | –
2 | B2 | – | binds
